{"source": "patent US20170050988A1", "about": "(priority 2013, published 2017)", "key": {"pig articular cartilage": {"test_system": "pig articular cartilage", "experiment": "Ex vivo MRI investigation with pig articular cartilage explants (T1)", "conditions": "contrast agent incubated cartilage"}, "[1]": {"experiment": "general procedure: Fmoc solid-phase peptide synthesis", "conditions": "conjugation step"}}, "note": "For some assays here: No dose or concentration is given here for some results. For some assays here: Strings that start with PEPTIDE1 are HELM notation: dots part the residues, brackets hold end groups and non-standard residues.", "data": [{"substance": "AcWYRGRL-DOTA-[Gd3+] [HHY-316Gd]", "values": [{"measurement": "T1", "setting": "pig articular cartilage", "result": 344, "unit": "ms"}]}, {"substance": "PEPTIDE1{[ac].W.Y.R.G.R.L}|PEPTIDE2{[ac].W.Y.R.G.R.L}|PEPTIDE3{[ac].W.Y.R.G.R.L}|CHEM1{[DOTAM-L4]}|CHEM2{[Cy55]}$PEPTIDE1,CHEM1,7:R2-1:R1|PEPTIDE2,CHEM1,7:R2-1:R2|PEPTIDE3,CHEM1,7:R2-1:R3|CHEM2,CHEM1,1:R2-1:R4$$$V2.0", "values": [{"measurement": "conjugation yield", "setting": "[1]", "result": 75, "unit": "%"}]}]}
